Reference: patent US20060003965A1, “N-acetyl-d-glucosamine (nag) supplemented food products and beverages” (priority 2002, published 2006)

How the values were obtained:
[1] = Sensory panel, Lipton instant tea; conditions: 1.425 g/8 ounce serving, average of six panelists, scale −5 to +5
Description: Tea made from Lipton® instant tea mix was used as the basis for incorporation of samples. To prepare the tea, the following recipe was used: 2.69 g instant tea, 5.7 g GLCN or NAG (where applicable) then add water to one quart. Tea was prepared for sensory testing as follows:
Batch 1. Control Tea (no NAG or glucosamine)
Batch 2. Tea+glucosamine (pH 5-6) [GLCN from fungal biomass, see batch 2 Example 1]
Batch 3. Tea+NAG (pH 5-6) (N-Acetyl-D-glucosamine, Catalog # A-102-2, Ferro Pfanstiehl, Waukegan, Ill.)
Batch 4. Tea+glucosamine (pH 5-6) heated to 71° C. for 20 minutes
Batch 5. Tea+glucosamine heated (pH 5-6) to 90° C. for 20 seconds, flash cooled in ice water bath
Batch 6. Tea+glucosamine (pH 5-6) boiled on stove for 5 minutes, flash cooled in ice water bath
Batch 7. Tea+NAG (pH 5-6) heated to 71° C. for 20 minutes
Batch 8. Tea+NAG (pH 5-6) heated to 90° C. for 20 seconds, flash cooled in ice water bath
Batch 9. Tea+NAG (pH 5-6) boiled on stove for 5 minutes, flash cooled in ice water bath
The recipe prepared one quart, so each batch consisted of 32 ounces, or four 8-ounce servings. For servings that included GLCN or NAG, the serving (8 ounces) had 1.425 g GLCN or NAG, or 5.7 g GLCN or NAG per batch (1.425 g/serving×4 servings/batch=5.7 g/batch), which reflects a typical amount of GLCN or NAG delivered in dietary supplement products.
Samples were tested within one day of preparing. Samples were tested blindly against a marked control, and a blind control was included. Panelists were asked to compare each sample to the control and comment using the instructions and scale described in Example 1.

[2] = Sensory panel, Canny Kits bubble gum; conditions: 0.75 g/serving, microwaved with gum base, average of twelve panelists, scale −5 to +5 vs control
From the text: Canny Kits® Bubble Gum was be used as the basis for incorporation of samples. A serving of gum was estimated to be two pieces of gum.
According to the manufacturer's instructions, the mix makes over ¼ pound of gum. Assuming a piece of gum weighs at least 4 g, the mix can prepare approximately 30 pieces of gum. A gum kit was used to make two batches of gum. For servings which included GLCN or NAG, the serving (2 pieces of gum) had 0.75 g GLCN or NAG, or 0.375 g GLCN or NAG per piece of gum added, which reflects a typical amount of GLCN or NAG delivered in dietary supplement products. Except for the control batch, 5.625 g of GLCN or NAG was added (0.375 g active per piece of gum×15 pieces of gum in ½ a gum kit=5.625 g).
To make the gum, a plate was covered with waxed paper. Half of the powdered sugar provided was poured onto the waxed paper, and a well was formed in the pile of sugar to receive the melted gum and syrup. The gum-base pellets were melted by placing them in a plastic cup with the corn syrup, flavoring and GLCN or NAG (as applicable), then microwaving in a 1000 watt Amana Radarange microwave on high for 15 seconds. The heating step was repeated for two more 15 second intervals, stirring after each, until the gum base was completely melted. This melted mixture was slowly added to the powdered sugar, with constant mixing. The gum was worked into the powdered sugar until it no more sugar would absorb. When the gum was cool enough to handle, it was handled like bread dough and rolled flat, cooled, and cut into pieces for sensory testing.
(§1) Samples were tested according to the methodology and instructions in Example 1.

[3] = Sensory panel, Allsport sports drink; conditions: 0.75 g/serving, heated 195±4° F. 42±4 s, average of 12 panelists, scale −5 to +5 vs control
From the text: Allsport® sports drink (The Monarch Company, Atlanta, Ga.) was used as the basis for incorporation of samples. Citrus Slam flavor was chosen because of its light color, which may help panelists observe any color change. According to the manufacturer, a 20-ounce bottle of Allsport® contains 2.5 servings.
For servings that included GLCN or NAG, the serving had 0.75 g GLCN or NAG added, which reflects a typical amount of GLCN or NAG delivered in dietary supplement products. Therefore, 1.875 g (0.75 g/serving GLCN or NAG×2.5 servings/bottle=1.875 g GLCN or NAG/bottle) of GLCN or NAG was added to a 20-ounce bottle of Allsport®. After the bottles were prepared, the contents were heated to 195±4° F. for 42±4 seconds to simulate a pasteurization step. Samples were heated in a 1000 watt Amana Radarange microwave oven in foam cups for the same amount of time. For a room temperature beverage, 150 seconds of heating time was necessary, and for a refrigerated beverage, 180 seconds was required. The beverages were cooled in their original bottles, ¾ submerged in an ice water bath, and hand rotated to simulate flash cooling.
as §1

[4] = Sensory panel, Fleischmann's Country White bread machine mix; conditions: 0.75 g/slice, baked in bread machine, average of 10 panelists, scale −5 to +5 vs control
Description: Fleischmann's® Bread Machine Mix was used as the basis for incorporation of samples. Country White Mix was chosen due to its light color and mild flavor. According to the manufacturer, 1 box make 8 servings (8 slices).
One box of bread mix was used for each batch. For servings which included GLCN or NAG, the serving (1 slice) had 0.75 g GLCN or NAG added, which reflects a typical amount of GLCN or NAG delivered in dietary supplement products. Except for the control, 6 g GLCN or NAG was added to each batch (0.75 g NAG or GLCN/slice×8 slices=6 g NAG or GLCN/batch). The recipe on the box was used. GLCN or NAG was added to the dry mix and mixed with a spoon, and the mixture added to a breadmaker. To this, 8 ounces of water (75° F.-85° F.), and 1 package of yeast (provided with the bread mix) was added. The bread machine was set to medium/normal crust color. The finished bread was immediately removed, cooled on a plate, and stored in airtight containers.
as §1

[5] = Sensory panel, Rice Krispies Treats; conditions: 0.75 g/serving, added to melted marshmallow, average of 12 panelists, scale −5 worse to +5 better than control
Description: Rice Krispies® Treats were used as the basis for incorporation of samples. According to the manufacturer, two treats are a serving. To prepare the samples, four batches of Rice Krispies® Treats were prepared for sensory testing as follows: • batch 1. Control (no GLCN, no NAG). • batch 2. GLCN (glucosamine hydrochloride derived from fungal biomass, Cargill, Minneapolis, Minn., Lot No. GP015-A). • batch 3. GLCN (glucosamine hydrochloride derived from shellfish, Batch 011107, Index # 9152, V.L. Clark Chemical Co., Inc., Union, Mo.). • batch 4. NAG (N-Acetyl-D-glucosamine, Lot # 27294A, Catalog # A-102-2, Ferro Pfanstiehl, Waukegan, Ill.).
According to the manufacturer's instructions, the recipe prepares 24 treats, so 4 batches were prepared from the recipe. Each batch consisted of six treats, or three servings. For servings which included GLCN or NAG, the serving (2 treats) had 0.75 g GLCN or NAG, or 0.375 g per treat added, which reflects a typical amount of GLCN or NAG delivered in dietary supplement products (0.25 g-1.5 g/serving). Therefore, except for the control batch, each batch had 2.25 g of GLCN or NAG added (0.375 g GLCN or NAG per treat×6 treats in batch=2.25 g GLCN or NAG per batch). GLCN or NAG was added to the melted marshmallow (melt marshmallow in a 1000 watt Amana Radarange microwave following manufacturer's instructions) prior to adding the Rice Krispies®, to evenly disperse the minor dry ingredients. Here, the samples were not heated to high temperatures.
Samples were tested within one day of preparing. Samples were tested blindly against a marked control, and a blind control was included. Panelists were asked to compare each sample to the control and comment. Panelists received the following instructions: • 1. Taste the control sample first. • 2. Compare all other samples to the control and write descriptors in the table (some potential comments might be whether or not the sample is hard, soft, brittle, crumbly, chewy, or grainy).
3. Numerically rate whether the samples are better or worse than the control, using this scale: […]

[6] = Sensory panel, Jiffy corn muffins; conditions: 0.75 g/muffin, baked 400° F. 18 min, average of 12 panelists, scale −5 to +5 vs control
From the text: Jiffy® Corn Muffin Mix was used as the basis for incorporation of samples. Corn muffins were chosen due to their light color and mild taste. One serving is one muffin (as per the manufacturer).
Two boxes prepare 12 large muffins, a box was used to prepare 4 batches of samples (3 muffins per batch). For servings which included GLCN or NAG, the serving (1 muffin) had 0.75 g GLCN or NAG added, which reflects a typical amount of GLCN or NAG delivered in dietary supplement products. Except for the control, each batch had 2.25 g of NAG or GLCN added (0.75 g NAG or GLCN/muffin×3 muffins=2.25 g NAG or GLCN/batch). Each batch was prepared separately, so that the muffins were baked in the same places on the muffin pan. GLCN or NAG was added to the dry mix and mixed with a spoon. To this, 4 teaspoons of milk and ¼ of a beaten egg were added and the ingredients blended until slightly lumpy (each batch was mixed for the same amount of time). The mixtures were allowed to sit for three minutes, then evenly distributed into lightly-greased muffin cups. The muffins were baked at 400° F. for 18 minutes, then immediately removed from the muffin cup and stored in airtight containers.
as §1

[7] = heated to 71° C. for 20 minutes
[8] = heated to 90° C. for 20 seconds

SMILES	Taste ([1]; boiled 5 minutes)	Taste [1, 7]	Taste [1, 8]	Taste ([1]; not heated)	Odor [3]	Color [4]	Color [5]	Color ([2]; hydrochloride)	Mouthfeel/texture ([2]; hydrochloride)	Taste ([2]; hydrochloride)	Color ([3]; hydrochloride)	Mouthfeel/texture ([3]; hydrochloride)	Taste ([3]; hydrochloride)	Mouthfeel/texture ([4]; hydrochloride)	Odor ([4]; hydrochloride)	Taste ([4]; hydrochloride)	Mouthfeel/texture ([5]; hydrochloride)	Odor ([5]; hydrochloride)	Taste ([5]; hydrochloride)	Color ([6]; hydrochloride)	also measured
CC(=O)N[C@H]1C(O)O[C@H](CO)[C@@H](O)[C@@H]1O (stereo partly drawn) [NAG, N-Acetyl-D-glucosamine]	0.2	1.3	1.2	2.0	+0.1	−0.1	0	–	–	–	–	–	–	–	–	–	–	–	–	–	Color [2]: +0.1; Mouthfeel/texture [2]: −0.2; Taste [2]: −0.3; Color [3]: −0.1; Mouthfeel/texture [3]: 0; Taste [3]: −0.2; Mouthfeel/texture [4]: 0; Odor [4]: 0; Taste [4]: −0.3; Mouthfeel/texture [5]: +0.3; Odor [5]: +0.3; Taste [5]: +0.3; Color [6]: +0.3; Mouthfeel/texture [6]: −0.1; Odor [6]: −0.2; Taste [6]: −0.1
Cl.N[C@H]1C(O)O[C@H](CO)[C@@H](O)[C@@H]1O (some centres unmarked) [Shellfish GLCN, glucosamine hydrochloride]	–	–	–	–	−0.3	−0.9	0	−0.2	−0.8	−1.8	−0.1	−0.2	−0.7	−0.4	−0.2	−1.1	0	0	−1.4	−1.7	Mouthfeel/texture ([6]; hydrochloride): −0.1; Odor ([6]; hydrochloride): −0.4; Taste ([6]; hydrochloride): −1.0
Cl.N[C@H]1C(O)O[C@H](CO)[C@@H](O)[C@@H]1O (some centres unmarked) [Fungal GLCN, glucosamine hydrochloride]	−2.2	−3.7	−4.2	−3.2	−0.3	−0.9	0	−0.3	−0.6	−2.9	0	+0.1	−0.3	−1.1	−0.3	−1.0	−0.1	−0.3	−0.4	−2.1	Mouthfeel/texture ([6]; hydrochloride): −0.8; Odor ([6]; hydrochloride): −0.3; Taste ([6]; hydrochloride): −2.4
